Some of the results follow. Small differences around the control level are noise.

By UniProt entry, the sequences of proteins in these tests, tags left out. Where a name states a change or a piece, a line headed by the entry shows the natural chain unless it says otherwise.
UniProt Q9NQA3: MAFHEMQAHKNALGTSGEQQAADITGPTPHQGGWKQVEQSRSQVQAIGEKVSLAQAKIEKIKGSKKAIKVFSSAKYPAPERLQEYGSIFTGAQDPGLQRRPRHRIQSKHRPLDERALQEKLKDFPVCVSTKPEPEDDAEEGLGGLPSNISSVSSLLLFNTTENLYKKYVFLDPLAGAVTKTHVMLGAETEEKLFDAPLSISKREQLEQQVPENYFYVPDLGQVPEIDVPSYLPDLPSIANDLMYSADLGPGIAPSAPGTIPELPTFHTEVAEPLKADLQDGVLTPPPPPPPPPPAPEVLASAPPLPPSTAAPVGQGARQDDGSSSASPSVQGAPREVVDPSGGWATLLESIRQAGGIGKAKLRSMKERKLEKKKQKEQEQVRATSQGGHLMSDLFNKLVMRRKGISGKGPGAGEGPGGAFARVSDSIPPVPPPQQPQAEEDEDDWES
UniProt Q9H707: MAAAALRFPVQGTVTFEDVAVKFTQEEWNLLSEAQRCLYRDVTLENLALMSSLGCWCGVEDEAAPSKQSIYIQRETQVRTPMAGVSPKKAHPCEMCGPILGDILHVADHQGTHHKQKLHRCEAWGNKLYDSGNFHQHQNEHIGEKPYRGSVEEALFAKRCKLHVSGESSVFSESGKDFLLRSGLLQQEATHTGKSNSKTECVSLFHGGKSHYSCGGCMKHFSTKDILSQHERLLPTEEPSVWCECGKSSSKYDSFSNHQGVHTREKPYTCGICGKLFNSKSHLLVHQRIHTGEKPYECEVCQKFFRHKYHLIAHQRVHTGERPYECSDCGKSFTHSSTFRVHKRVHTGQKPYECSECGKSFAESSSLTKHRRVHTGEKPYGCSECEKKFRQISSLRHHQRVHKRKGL
UniProt Q9H875: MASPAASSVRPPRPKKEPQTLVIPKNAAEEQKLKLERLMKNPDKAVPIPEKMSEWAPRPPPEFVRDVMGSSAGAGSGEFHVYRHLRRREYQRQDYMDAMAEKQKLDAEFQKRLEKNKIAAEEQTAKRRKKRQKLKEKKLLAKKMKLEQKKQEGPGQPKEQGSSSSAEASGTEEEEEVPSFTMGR
UniProt Q9HD15: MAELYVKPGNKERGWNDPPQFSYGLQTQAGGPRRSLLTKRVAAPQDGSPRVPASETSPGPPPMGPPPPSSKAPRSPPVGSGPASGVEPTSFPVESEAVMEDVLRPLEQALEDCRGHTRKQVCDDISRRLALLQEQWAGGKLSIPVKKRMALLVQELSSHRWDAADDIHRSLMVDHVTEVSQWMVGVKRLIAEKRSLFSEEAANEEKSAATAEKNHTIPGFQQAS
UniProt Q9H4B7, whole entry: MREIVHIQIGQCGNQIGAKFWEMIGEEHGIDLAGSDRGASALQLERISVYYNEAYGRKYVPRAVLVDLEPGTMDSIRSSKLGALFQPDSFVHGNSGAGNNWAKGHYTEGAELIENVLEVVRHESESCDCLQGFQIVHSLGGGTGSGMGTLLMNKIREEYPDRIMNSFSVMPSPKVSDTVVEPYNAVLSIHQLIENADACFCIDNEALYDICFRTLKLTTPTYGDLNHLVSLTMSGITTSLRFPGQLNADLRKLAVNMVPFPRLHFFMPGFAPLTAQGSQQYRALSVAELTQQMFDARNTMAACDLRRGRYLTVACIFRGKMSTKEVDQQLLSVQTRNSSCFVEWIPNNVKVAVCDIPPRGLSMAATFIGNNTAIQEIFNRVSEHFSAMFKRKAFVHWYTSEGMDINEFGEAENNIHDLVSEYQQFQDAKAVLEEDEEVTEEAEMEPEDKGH
UniProt Q9HCJ3: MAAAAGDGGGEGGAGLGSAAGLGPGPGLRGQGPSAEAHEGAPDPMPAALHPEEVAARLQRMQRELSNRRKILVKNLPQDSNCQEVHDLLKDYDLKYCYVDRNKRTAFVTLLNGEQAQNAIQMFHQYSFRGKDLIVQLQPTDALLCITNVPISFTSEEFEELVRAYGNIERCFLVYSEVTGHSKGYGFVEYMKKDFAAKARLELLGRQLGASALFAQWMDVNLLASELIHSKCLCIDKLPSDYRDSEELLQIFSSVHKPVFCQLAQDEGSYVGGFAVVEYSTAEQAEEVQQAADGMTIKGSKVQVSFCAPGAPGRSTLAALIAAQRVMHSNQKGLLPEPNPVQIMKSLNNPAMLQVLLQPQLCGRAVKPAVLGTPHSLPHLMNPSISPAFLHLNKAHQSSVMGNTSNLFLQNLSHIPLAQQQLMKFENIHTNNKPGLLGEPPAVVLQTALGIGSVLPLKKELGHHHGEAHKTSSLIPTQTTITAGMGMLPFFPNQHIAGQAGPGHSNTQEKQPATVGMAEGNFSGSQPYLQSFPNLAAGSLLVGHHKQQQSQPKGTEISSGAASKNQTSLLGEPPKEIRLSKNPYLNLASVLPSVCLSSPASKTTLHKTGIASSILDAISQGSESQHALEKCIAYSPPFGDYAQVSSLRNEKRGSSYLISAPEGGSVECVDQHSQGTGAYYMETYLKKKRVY
UniProt Q9HD40: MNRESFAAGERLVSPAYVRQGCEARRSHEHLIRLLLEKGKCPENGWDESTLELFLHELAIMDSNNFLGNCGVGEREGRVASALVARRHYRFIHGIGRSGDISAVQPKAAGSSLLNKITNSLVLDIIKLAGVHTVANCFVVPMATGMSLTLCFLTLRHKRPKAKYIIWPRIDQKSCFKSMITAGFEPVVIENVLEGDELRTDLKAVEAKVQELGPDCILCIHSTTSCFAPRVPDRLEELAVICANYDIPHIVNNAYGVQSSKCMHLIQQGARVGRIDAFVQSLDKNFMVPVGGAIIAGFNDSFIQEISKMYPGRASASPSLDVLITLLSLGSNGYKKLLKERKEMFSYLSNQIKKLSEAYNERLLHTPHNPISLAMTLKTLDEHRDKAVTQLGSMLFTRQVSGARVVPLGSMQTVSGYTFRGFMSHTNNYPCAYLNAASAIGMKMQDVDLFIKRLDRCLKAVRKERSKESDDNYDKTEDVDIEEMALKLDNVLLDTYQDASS
UniProt Q9H8G2: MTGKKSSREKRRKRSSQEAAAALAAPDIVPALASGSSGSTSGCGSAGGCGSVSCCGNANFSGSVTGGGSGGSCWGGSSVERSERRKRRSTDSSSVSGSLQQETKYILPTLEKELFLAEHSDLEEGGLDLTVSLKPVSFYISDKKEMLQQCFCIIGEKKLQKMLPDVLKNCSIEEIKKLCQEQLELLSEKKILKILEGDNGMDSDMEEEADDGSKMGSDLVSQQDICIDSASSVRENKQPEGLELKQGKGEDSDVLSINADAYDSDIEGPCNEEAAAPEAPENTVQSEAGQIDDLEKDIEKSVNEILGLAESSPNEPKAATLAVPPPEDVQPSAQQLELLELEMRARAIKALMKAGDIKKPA
UniProt Q9H9Y4: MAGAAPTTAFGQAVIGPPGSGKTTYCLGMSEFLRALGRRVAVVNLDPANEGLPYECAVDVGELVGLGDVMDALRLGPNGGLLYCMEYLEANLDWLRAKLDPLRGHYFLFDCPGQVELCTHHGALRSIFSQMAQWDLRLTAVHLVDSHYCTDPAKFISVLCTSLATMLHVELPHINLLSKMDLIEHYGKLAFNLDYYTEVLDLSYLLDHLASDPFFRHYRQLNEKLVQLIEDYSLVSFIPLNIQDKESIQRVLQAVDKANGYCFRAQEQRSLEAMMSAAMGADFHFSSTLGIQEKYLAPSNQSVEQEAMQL
UniProt Q9H7D7: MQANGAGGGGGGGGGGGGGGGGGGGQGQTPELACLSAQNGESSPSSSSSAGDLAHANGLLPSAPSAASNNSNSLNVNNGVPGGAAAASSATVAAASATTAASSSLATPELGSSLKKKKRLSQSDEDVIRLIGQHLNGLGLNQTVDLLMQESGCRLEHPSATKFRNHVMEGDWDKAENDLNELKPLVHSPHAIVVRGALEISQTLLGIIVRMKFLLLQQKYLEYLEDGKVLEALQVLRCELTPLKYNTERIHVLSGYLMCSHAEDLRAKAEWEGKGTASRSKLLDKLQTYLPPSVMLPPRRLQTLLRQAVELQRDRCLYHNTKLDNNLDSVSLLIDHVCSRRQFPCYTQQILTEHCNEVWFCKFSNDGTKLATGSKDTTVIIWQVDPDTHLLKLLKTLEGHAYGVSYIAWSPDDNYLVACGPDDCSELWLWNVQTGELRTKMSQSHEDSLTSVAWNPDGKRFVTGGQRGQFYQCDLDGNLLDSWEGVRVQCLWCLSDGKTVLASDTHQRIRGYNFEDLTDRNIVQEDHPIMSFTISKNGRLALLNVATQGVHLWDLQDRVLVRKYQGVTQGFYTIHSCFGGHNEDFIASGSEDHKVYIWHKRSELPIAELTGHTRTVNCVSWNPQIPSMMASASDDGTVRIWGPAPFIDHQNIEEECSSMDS
UniProt Q9NP66: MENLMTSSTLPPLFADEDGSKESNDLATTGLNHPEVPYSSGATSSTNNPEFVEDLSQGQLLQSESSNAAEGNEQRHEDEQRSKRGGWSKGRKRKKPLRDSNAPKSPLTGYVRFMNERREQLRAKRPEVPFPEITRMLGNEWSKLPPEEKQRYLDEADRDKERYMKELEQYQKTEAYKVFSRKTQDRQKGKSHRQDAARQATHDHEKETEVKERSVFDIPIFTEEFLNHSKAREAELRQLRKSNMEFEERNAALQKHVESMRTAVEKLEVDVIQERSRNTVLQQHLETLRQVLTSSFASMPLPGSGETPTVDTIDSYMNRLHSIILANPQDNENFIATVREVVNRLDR
UniProt Q9H5J0: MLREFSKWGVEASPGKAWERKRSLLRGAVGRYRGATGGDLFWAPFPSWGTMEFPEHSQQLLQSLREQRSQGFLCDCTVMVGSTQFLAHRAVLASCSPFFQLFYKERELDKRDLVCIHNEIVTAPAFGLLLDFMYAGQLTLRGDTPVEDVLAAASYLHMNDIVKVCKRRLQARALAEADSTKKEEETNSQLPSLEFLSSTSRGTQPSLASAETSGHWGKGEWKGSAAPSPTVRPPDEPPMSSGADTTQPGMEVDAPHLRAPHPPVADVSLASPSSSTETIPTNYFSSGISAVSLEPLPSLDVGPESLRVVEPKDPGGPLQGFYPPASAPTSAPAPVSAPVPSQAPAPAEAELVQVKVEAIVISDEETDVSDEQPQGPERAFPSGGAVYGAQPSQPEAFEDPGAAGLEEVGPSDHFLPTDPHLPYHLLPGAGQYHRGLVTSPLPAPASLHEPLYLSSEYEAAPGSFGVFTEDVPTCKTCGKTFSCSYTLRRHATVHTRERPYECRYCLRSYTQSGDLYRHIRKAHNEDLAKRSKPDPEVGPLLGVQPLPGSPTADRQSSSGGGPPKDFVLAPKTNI
UniProt Q9NPA3, whole entry: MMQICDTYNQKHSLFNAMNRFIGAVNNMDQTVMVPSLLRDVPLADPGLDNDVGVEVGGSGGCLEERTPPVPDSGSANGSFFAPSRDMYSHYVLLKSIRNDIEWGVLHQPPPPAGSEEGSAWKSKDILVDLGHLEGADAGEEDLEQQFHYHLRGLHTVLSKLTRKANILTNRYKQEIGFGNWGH
UniProt Q9HBM0: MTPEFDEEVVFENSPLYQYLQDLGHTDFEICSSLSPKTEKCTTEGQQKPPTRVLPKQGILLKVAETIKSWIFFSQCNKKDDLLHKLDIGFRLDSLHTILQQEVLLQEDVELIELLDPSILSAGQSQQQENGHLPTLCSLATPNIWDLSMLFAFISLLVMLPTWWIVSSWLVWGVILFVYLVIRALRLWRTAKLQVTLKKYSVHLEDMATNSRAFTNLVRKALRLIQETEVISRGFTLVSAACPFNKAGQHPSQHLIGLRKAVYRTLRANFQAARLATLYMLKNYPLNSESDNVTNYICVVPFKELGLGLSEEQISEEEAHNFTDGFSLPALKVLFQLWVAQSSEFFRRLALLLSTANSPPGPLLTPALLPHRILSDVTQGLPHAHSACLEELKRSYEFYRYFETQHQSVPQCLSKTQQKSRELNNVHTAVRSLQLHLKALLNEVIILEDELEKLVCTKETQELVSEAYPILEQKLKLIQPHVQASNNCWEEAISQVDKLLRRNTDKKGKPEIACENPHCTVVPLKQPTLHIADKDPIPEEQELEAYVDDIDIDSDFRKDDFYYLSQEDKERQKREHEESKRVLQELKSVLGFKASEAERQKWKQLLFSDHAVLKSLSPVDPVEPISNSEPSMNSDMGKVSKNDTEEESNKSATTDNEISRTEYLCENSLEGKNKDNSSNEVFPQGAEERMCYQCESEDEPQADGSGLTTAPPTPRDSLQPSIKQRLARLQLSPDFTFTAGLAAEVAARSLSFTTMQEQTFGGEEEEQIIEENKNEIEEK
UniProt Q9H9P8: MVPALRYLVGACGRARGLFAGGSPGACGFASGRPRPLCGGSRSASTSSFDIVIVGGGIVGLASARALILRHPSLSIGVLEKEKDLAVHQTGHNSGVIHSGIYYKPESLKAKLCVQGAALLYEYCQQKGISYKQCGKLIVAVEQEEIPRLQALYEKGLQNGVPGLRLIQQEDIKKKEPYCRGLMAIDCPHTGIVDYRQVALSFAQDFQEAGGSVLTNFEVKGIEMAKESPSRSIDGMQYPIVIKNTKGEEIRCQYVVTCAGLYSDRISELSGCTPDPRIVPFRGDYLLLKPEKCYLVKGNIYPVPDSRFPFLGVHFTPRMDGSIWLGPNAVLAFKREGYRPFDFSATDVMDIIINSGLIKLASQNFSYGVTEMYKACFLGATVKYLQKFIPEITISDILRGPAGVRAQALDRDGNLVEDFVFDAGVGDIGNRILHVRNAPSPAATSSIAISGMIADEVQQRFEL

Compound in this assay: CN[C@@H]1C[C@H]2O[C@@](C)([C@@H]1OC)n1c3ccccc3c3c4c(c5c6ccccc6n2c5c31)C(=O)NC4 [staurosporine]
Briefly: log2 fold change of tryptic peptide abundance, ligand vs vehicle (limited proteolysis) (log2 ratio); higher = more trypsin-susceptible (destabilized). To be noted: ligand concentration: 20 uM; sample: K562 cleared lysate; digestion: 4 min, 22 C (HT-PELSA RT4min, Orbitrap Astral).
For the target “WASH6P (peptide sequence: QDDGSSSASPSVQGAPR, peptide start residue: 319) (UniProt Q9NQA3)”, the log2 fold change is -0.235.
The figure for “ZNF552 (peptide sequence: YDSFSNHQGVHTR, peptide start residue: 252) (UniProt Q9H707)” is 0.359; for “CENPJ (peptide sequence: IIELETEIEKFK, peptide start residue: 910) (UniProt Q9HC77)” it is 0.868.
The figure for “PRKRIP1 (peptide sequence: QDYMDAMAEK, peptide start residue: 93) (UniProt Q9H875)” is -0.322.
The figure for “RTN4 (peptide sequence: SDEGHPFR, peptide start residue: 1067) (UniProt Q9NQC3)” is 0.128; for “TNRC6C (peptide sequence: QLAQALLVK, peptide start residue: 1205) (UniProt Q9HCJ0)” it is -0.293; for “COQ10B (peptide sequence: ITAPLINK, peptide start residue: 67) (UniProt Q9H8M1)” it is 0.313.
For “SRA1 (peptide sequence: SLMVDHVTEVSQWMVGVKR, peptide start residue: 170) (UniProt Q9HD15)”, the log2 fold change was 0.352.
Under “TUBB1 (peptide sequence: ALSVAELTQQMFDAR, peptide start residue: 283) (UniProt Q9H4B7)” stands 0.336; under “UniProt Q9H993 (peptide sequence: LRNELQTDKPFIPLVEK, peptide start residue: 65)”, -0.0302.
The figure for “NMNAT1 (peptide sequence: WTETQDSSQKK, peptide start residue: 129) (UniProt Q9HAN9)” is -0.336.
The figure for “RAVER2 (peptide sequence: NQTSLLGEPPKEIR, peptide start residue: 565) (UniProt Q9HCJ3)” is 0.28; for “SEPSECS (peptide sequence: SKESDDNYDKTEDVDIEEMALK, peptide start residue: 466) (UniProt Q9HD40)” it is -0.101.
As for “UniProt Q9H8K7 (peptide sequence: HYDSGER, peptide start residue: 433)”, the log2 fold change is -0.77.
Under “UniProt Q9H8G2 (peptide sequence: YILPTLEK, peptide start residue: 105)” stands 0.159; under “GPN2 (peptide sequence: LTAVHLVDSHYCTDPAK, peptide start residue: 138) (UniProt Q9H9Y4)”, 0.171.
Under “WDR26 (peptide sequence: LEHPSATK, peptide start residue: 155) (UniProt Q9H7D7)” stands 0.58.
Under “HMG20A (peptide sequence: YLDEADRDKER, peptide start residue: 152) (UniProt Q9NP66)” stands -0.242.
For “ZNF644 (peptide sequence: TGAGMVEVTSLLK, peptide start residue: 1296) (UniProt Q9H582)”, the log2 fold change came out at 0.362.
The figure for “ELP3 (peptide sequence: RKGDLSPAELMMLTIGDVIK, peptide start residue: 5) (UniProt Q9H9T3)” is -0.429.
On to “MRPS30 (peptide sequence: QYENHIFVGSK, peptide start residue: 277) (UniProt Q9NP92)”, for which the log2 fold change is -0.116.
The figure for “ZFAND3 (peptide sequence: SKAPSLPPR, peptide start residue: 9) (UniProt Q9H8U3)” is -0.338.
As to “ZBTB3 (peptide sequence: QSSSGGGPPK, peptide start residue: 555) (UniProt Q9H5J0)”, the log2 fold change is -0.492.
The figure for “UniProt Q9NPA3 (peptide sequence: QEIGFGNWGH, peptide start residue: 174)” is -0.213; for “VEZT (peptide sequence: NKDNSSNEVFPQGAEER, peptide start residue: 673) (UniProt Q9HBM0)” it is 0.0717.
The figure for “EPS8L2 (peptide sequence: IVENLGILTGPQLFSLNKEELKK, peptide start residue: 646) (UniProt Q9H6S3)” is -0.222.
The figure for “L2HGDH (peptide sequence: LIQQEDIK, peptide start residue: 166) (UniProt Q9H9P8)” is 0.201; for “UniProt Q9H6W3 (peptide sequence: REPYGHLGPAELLEASPAAR, peptide start residue: 94)” it is -0.331.
